# Test results taken from the supplement of paper PMC8728848.
# Some of the results follow.
# B1: GroEL (Clostridium difficile), Q18CT5 (protein)
# chain: MAKEIKFSEETRRALEAGVNKLADTVKVTLGPKGRNVILDKKFGSPLITNDGVTIAKEIELEDRFENMGAQLVKEVATKTNDVAGDGTTTATVLAQAIIREGLKNVTAGANPILLRKGIQKAVTVAVEELKNQSRIVETQEAISQVASISAGDEEVGKLIAEAMEIVGKDGVITVEESQTMNTELDAVEGMQFDRGFVSAYMVTDVDKMEAVLNDPYILITDKKISNIQELLPVLEQIVQQGKKLLIIAEDVEGEALSTLVVNKLRGTFDVVAVKAPGFGDRRKEMLQDIAILTGAQVISEELGYDLKEADLSMLGRASSVKVTKESTTIVDGSGDKKAIEDRVTQIKHQVEQTTSDFDREKLMERLAKLAGGVAVVKVGAATEVELKERKLRIEDALNATRAAVEEGIVAGGGTAFVSVIPAIGTLIESLEGEVKLGAQIVKKALEEPLRQIAINAGLEGAVIVQNVVNSEAETGFDALNEKYVNMIEAGIVDPTKVSRSALQNAASIASTFLTTEAAVADLPEKEDAGMPGMGGGMPGMM
# Legend:
# Experiment in all cases: glycan array binding signal (z-score within array); higher = stronger binding
# Settings in all cases: glycan notation: IUPAC condensed, linker removed
# [1] = target: Man(a1-2)Man(a1-3)[Man(a1-2)Man(a1-6)]Man(a1-6)[Man(a1-2)Man(a1-2)Man(a1-3)]Man(b1-4)GlcNAc(b1-4)GlcNAc
# Procedure, shortened: (§1)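 The Consortium for Functional Glycomics database supplied 3228 glycan arrays, of which those lacking an available protein sequence were dropped. The binding signal, a within-array Z-score, was averaged across arrays of the same protein sequence and across linkers. Negative scores can be read as non-binding.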
# [2] = target: Man(a1-2)Man(a1-3)[Man(a1-6)]Man(a1-6)[Man(a1-2)Man(a1-3)]Man(b1-4)GlcNAc(b1-4)GlcNAc
# Procedure, shortened: as §1
# [3] = target: Man(a1-2)Man(a1-6)[Man(a1-3)]Man(a1-6)[Man(a1-2)Man(a1-2)Man(a1-3)]Man
# Procedure, shortened: as §1
# [4] = target: Man(a1-2)Man(a1-6)[Man(a1-3)]Man(a1-6)[Man(a1-2)Man(a1-2)Man(a1-3)]Man(b1-4)GlcNAc(b1-4)GlcNAc
# Procedure, shortened: as §1
# Man(a1-3)[Man(a1-6)]Man = target: Man(a1-3)[Man(a1-6)]Man
# Procedure, shortened: as §1
# [5] = target: Man(a1-3)[Man(a1-6)]Man(a1-6)[Man(a1-2)Man(a1-3)]Man(b1-4)GlcNAc(b1-4)GlcNAc
# Procedure, shortened: as §1
# [6] = target: Man(a1-3)[Man(a1-6)]Man(a1-6)[Man(a1-3)]Man
# Procedure, shortened: as §1
# [7] = target: Man(a1-3)[Man(a1-6)]Man(a1-6)[Man(a1-3)]Man(b1-4)GlcNAc(b1-4)GlcNAc
# Procedure, shortened: as §1
# [8] = target: Man(a1-3)[Man(a1-6)]Man(b1-4)GlcNAc(b1-4)GlcNAc
# Procedure, shortened: as §1
# [9] = target: Man(a1-3)[Man(a1-6)]Man(b1-4)GlcNAc(b1-4)[Fuc(a1-6)]GlcNAc
# Procedure, shortened: as §1
# Man(a1-6)Man = target: Man(a1-6)Man
# Procedure, shortened: as §1
# Man(b1-4)GlcNAc = target: Man(b1-4)GlcNAc
# Procedure, shortened: as §1
# MurNAc(b1-4)GlcNAc = target: MurNAc(b1-4)GlcNAc
# Procedure, shortened: as §1
# Neu5Ac(a2-3)Gal = target: Neu5Ac(a2-3)Gal
# Procedure, shortened: as §1
# [10] = target: Neu5Ac(a2-3)Gal(b1-3)GalNAc
# Procedure, shortened: as §1
# [11] = target: Neu5Ac(a2-3)Gal(b1-3)GalNAc(b1-3)Gal(a1-4)Gal(b1-4)Glc
# Procedure, shortened: as §1
# [12] = target: Neu5Ac(a2-3)Gal(b1-3)GalNAc(b1-4)[Neu5Ac(a2-3)]Gal(b1-4)Glc
# Procedure, shortened: as §1
# [13] = target: Neu5Ac(a2-3)Gal(b1-3)GalNAc(b1-4)[Neu5Ac(a2-8)Neu5Ac(a2-3)]Gal(b1-4)Glc
# Procedure, shortened: as §1
# [14] = target: Neu5Ac(a2-3)Gal(b1-3)GalNAc6S
# Procedure, shortened: as §1
# [15] = target: Neu5Ac(a2-3)Gal(b1-3)GlcNAc
# Procedure, shortened: as §1
# [16] = target: Neu5Ac(a2-3)Gal(b1-3)GlcNAc(b1-2)Man
# Procedure, shortened: as §1
# [17] = target: Neu5Ac(a2-3)Gal(b1-3)GlcNAc(b1-2)Man(a1-3)[GlcNAc(b1-4)][Neu5Ac(a2-3)Gal(b1-3)GlcNAc(b1-2)Man(a1-6)]Man(b1-4)GlcNAc(b1-4)GlcNAc
# Procedure, shortened: as §1
# [18] = target: Neu5Ac(a2-3)Gal(b1-3)GlcNAc(b1-2)Man(a1-3)[Neu5Ac(a2-3)Gal(b1-3)GlcNAc(b1-2)Man(a1-6)]Man(b1-4)GlcNAc(b1-4)GlcNAc
# Procedure, shortened: as §1
# [19] = target: Neu5Ac(a2-3)Gal(b1-3)GlcNAc(b1-3)Gal(b1-3)GlcNAc
# Procedure, shortened: as §1
# [20] = target: Neu5Ac(a2-3)Gal(b1-3)GlcNAc(b1-3)Gal(b1-4)GlcNAc
# Procedure, shortened: as §1
# [21] = target: Neu5Ac(a2-3)Gal(b1-3)GlcNAc(b1-3)GalNAc
# Procedure, shortened: as §1
# [22] = target: Neu5Ac(a2-3)Gal(b1-3)GlcNAc(b1-4)Gal(b1-4)Glc
# Procedure, shortened: as §1
# [23] = target: Neu5Ac(a2-3)Gal(b1-3)GlcNAc(b1-6)GalNAc
# Procedure, shortened: as §1
# [24] = target: Neu5Ac(a2-3)Gal(b1-3)GlcNAc6S
# Procedure, shortened: as §1
# [25] = target: Neu5Ac(a2-3)Gal(b1-3)[Fuc(a1-4)]GlcNAc
# Procedure, shortened: as §1
binder,measurement,setting,value
B1,glycan array binding signal (z-score),[1],-0.359
same,glycan array binding signal (z-score),[2],2.47
same,glycan array binding signal (z-score),[3],0.972
same,glycan array binding signal (z-score),[4],-1.48
same,glycan array binding signal (z-score),Man(a1-3)[Man(a1-6)]Man,-0.789
same,glycan array binding signal (z-score),[5],1.52
same,glycan array binding signal (z-score),[6],2.57
same,glycan array binding signal (z-score),[7],3.99
same,glycan array binding signal (z-score),[8],0.123
same,glycan array binding signal (z-score),[9],-0.595
same,glycan array binding signal (z-score),Man(a1-6)Man,1.95
same,glycan array binding signal (z-score),Man(b1-4)GlcNAc,-1.02
same,glycan array binding signal (z-score),MurNAc(b1-4)GlcNAc,0.153
same,glycan array binding signal (z-score),Neu5Ac(a2-3)Gal,0.101
same,glycan array binding signal (z-score),[10],-0.287
same,glycan array binding signal (z-score),[11],-1.2
same,glycan array binding signal (z-score),[12],-1.08
same,glycan array binding signal (z-score),[13],-0.272
same,glycan array binding signal (z-score),[14],-0.769
same,glycan array binding signal (z-score),[15],-0.171
same,glycan array binding signal (z-score),[16],-0.056
same,glycan array binding signal (z-score),[17],1.2
same,glycan array binding signal (z-score),[18],-0.115
same,glycan array binding signal (z-score),[19],-0.917
same,glycan array binding signal (z-score),[20],0.928
same,glycan array binding signal (z-score),[21],0.139
same,glycan array binding signal (z-score),[22],2.65
same,glycan array binding signal (z-score),[23],-0.316
same,glycan array binding signal (z-score),[24],0.105
same,glycan array binding signal (z-score),[25],0.038
